Measured values from article PMC4859800.
Results are given in words; binding and its absence hold for the method and conditions named.

Protein sequences, listed by entry. Tags and fused reporters are not part of them. Lines headed by an entry give the natural chain unless they say otherwise; changes in a name come on top.
UniProt P53131: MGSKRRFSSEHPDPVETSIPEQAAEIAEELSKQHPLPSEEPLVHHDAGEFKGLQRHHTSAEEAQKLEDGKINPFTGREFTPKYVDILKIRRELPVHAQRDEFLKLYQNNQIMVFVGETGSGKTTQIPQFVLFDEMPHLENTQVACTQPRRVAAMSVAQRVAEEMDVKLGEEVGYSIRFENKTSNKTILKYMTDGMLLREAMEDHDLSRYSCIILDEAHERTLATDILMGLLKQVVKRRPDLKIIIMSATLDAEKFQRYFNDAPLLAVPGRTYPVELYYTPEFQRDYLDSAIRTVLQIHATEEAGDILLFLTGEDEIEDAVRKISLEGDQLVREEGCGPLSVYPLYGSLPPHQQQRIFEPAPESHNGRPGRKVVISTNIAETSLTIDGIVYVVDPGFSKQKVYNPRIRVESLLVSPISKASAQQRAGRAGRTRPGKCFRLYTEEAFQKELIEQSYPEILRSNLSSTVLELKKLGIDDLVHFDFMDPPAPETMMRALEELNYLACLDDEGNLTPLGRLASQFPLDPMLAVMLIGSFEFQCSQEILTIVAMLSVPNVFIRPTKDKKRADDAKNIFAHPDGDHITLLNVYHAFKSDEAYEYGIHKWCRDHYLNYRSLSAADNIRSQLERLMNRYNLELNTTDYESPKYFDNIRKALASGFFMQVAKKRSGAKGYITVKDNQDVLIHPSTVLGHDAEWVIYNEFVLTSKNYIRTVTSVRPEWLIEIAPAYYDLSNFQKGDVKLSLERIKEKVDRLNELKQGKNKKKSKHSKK

Assays:
Assay in all cases: two-hybrid; array-based Y2H matrix; preys in pACT2 (PJ69-4a) mated against 23 baits in pAS2-1 (PJ69-4α); growth on SD-Leu-Trp-His + 6 mM 3-AT greater than the negative control after 2 weeks
[1] = target: Prp43 (Y2H bait, pAS2-1) (S. cerevisiae) (UniProt P53131)
[2] = target: T1, Rrp12 (Y2H bait, pAS2-1) (S. cerevisiae) (UniProt Q12754)
T1 sequence: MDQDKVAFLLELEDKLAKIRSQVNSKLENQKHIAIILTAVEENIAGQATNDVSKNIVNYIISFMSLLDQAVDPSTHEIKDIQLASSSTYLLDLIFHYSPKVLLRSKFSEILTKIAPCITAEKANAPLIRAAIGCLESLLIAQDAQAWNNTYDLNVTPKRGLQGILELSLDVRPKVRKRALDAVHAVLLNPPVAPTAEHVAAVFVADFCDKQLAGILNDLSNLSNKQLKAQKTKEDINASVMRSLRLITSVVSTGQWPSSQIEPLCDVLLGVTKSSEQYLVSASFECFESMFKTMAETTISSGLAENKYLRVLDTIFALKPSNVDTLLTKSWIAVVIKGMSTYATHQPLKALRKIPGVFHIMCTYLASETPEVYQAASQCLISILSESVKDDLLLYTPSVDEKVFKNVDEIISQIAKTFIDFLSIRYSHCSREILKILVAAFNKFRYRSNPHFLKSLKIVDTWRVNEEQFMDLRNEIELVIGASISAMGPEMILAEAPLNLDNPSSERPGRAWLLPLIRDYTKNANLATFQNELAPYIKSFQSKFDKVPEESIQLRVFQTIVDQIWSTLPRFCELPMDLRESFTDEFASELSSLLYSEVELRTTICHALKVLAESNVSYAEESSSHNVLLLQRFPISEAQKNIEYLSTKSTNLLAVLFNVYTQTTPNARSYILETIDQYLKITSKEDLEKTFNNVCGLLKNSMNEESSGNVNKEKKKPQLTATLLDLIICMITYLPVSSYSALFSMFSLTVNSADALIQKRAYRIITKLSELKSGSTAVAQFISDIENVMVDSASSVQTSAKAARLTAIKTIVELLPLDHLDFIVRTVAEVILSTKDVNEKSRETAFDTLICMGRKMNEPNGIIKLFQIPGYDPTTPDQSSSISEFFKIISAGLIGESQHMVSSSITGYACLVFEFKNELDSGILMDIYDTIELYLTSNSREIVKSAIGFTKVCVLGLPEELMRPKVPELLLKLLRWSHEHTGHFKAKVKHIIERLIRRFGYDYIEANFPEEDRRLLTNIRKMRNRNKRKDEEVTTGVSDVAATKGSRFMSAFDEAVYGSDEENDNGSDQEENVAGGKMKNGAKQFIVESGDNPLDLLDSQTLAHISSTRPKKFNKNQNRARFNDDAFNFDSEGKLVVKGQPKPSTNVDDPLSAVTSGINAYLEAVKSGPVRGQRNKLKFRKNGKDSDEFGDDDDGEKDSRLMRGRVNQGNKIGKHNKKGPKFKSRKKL

[3] = target: T2, Nop12 (Y2H bait, pAS2-1) (S. cerevisiae) (UniProt Q08208)
T2 sequence: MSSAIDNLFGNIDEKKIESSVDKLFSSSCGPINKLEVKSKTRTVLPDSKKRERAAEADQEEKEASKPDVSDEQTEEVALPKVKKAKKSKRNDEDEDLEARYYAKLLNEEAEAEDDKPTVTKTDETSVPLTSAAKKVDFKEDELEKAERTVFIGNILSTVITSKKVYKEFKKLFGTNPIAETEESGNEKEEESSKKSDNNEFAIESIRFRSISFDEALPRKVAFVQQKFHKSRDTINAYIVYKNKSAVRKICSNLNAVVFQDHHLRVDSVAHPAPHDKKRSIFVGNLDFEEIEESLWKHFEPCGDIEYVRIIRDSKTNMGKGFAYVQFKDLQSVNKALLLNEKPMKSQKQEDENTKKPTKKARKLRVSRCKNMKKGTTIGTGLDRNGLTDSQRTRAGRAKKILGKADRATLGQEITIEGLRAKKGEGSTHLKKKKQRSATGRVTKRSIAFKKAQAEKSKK

[4] = target: T3, Nsa2 (Y2H bait, pAS2-1) (S. cerevisiae) (UniProt P40078)
T3 sequence: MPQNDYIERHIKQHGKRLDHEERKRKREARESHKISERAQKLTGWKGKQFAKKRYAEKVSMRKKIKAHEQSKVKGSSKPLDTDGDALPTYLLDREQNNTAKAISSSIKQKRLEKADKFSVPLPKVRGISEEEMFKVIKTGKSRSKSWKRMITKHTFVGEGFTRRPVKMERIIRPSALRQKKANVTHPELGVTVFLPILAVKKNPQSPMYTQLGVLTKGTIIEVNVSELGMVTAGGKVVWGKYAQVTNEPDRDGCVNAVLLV

Measured: binding

B1: Nop4 RRM 1–2 (Y2H prey, pACT2) (domain or fragment, UniProt P37838 1-250)
chain: MEETIENVEVPSSNVSKQNDDGLDMKTLFVRSIPQDVTDEQLADFFSNFAPIKHAVVVKDTNKRSRGFGFVSFAVEDDTKEALAKARKTKFNGHILRVDIAKRRDRSKKTSEVVEKSTPESSEKITGQNNEDEDDADGEDSMLKGKPKLIIRNMPWSCRDPVKLKKIFGRYGTVVEATIPRKRDGKLCGFAFVTMKKISNCRIALENTKDLKIDGRKVAVDFAVQKNRWEDYKKAQPEMNDKDDNESGNE
no binding: all assays above
